This experiment deals with CD45 (PTPRC) on human lymphoid CD45-positive RS4;11 cells (human) (UniProt P08575). Put plainly: flow cytometry, RS4;11 CD45+ vs CD45 knockout cells, 5 µg/mL antibody, PE goat anti-human IgG. A general note: In flow cytometry, cells or beads pass a laser one at a time.

Protein sequences, listed by entry. Tags and fused reporters are not part of them. Lines headed by an entry give the natural chain unless they say otherwise; changes in a name come on top.
UniProt P08575: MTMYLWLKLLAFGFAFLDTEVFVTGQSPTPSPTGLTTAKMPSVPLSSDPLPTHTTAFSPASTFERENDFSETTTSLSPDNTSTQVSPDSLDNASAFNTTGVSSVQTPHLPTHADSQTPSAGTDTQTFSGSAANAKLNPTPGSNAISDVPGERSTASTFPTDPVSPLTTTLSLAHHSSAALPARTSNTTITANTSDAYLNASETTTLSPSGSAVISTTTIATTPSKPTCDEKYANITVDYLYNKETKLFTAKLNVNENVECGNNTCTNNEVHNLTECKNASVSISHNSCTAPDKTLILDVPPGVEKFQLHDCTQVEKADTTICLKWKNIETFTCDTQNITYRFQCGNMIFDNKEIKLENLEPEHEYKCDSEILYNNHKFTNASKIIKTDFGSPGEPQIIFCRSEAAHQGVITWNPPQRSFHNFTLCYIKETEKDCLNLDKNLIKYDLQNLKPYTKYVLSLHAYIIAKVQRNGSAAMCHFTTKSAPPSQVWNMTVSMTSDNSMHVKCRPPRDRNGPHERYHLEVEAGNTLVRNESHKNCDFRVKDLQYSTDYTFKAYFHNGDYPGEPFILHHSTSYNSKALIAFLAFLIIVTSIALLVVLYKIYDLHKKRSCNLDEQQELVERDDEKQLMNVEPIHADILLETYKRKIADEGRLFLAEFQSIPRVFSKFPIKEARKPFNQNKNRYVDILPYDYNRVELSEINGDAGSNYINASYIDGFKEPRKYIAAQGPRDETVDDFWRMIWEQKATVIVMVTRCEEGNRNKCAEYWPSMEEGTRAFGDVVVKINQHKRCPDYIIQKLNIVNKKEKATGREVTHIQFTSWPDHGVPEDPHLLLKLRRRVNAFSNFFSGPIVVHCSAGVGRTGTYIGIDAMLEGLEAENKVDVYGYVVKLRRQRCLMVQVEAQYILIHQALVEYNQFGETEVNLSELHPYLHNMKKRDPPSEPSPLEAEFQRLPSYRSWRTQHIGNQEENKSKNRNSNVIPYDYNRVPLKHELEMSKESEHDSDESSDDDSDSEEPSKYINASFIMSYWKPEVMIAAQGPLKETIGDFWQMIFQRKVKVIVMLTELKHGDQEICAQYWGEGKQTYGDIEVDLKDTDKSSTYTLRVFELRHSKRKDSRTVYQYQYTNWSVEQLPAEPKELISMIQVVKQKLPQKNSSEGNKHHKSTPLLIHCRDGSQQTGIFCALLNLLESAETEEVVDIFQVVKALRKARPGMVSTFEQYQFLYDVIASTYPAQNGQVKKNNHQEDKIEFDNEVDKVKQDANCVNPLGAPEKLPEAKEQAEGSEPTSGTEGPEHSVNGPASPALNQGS

No constants are given. Whether binding was seen depends on the method and setting. Some binding calls cover weakened binding; strength is not graded here.

B1: chimeric BC8 (murine BC8 variable regions, human constant regions) (antibody, V domains shown)
VH: EVKLLESGGGLVQPGGSLKLSCAASGFDFSRYWMSWVRQAPGKGLEWIGEINPTSSTINFTPSLKDKVFISRDNAKNTLYLQMSKVRSEDTALYYCARGNYYRYGDAMDYWGQGTSVTVSS
VL: DIALTQSPASLAVSLGQRATISCRASKSVSTSGYSYLHWYQQKPGQPPKLLIYLASNLESGVPARFSGSGSGTDFTLNIHPVEEEDAATYYCQHSRELPFTFGSGTKLEIK
Take B1: the binding result is given as “binds”.

The values above are taken from patent publication US20250326856A1.
